The values below come from article PMC10627786.

What all share (assay): proximity labelling; BioID in stable inducible Flp-In T-REx 293 cells expressing BirA*-FLAG baits; mass spectrometry of biotinylated preys; SAINTexpress, two biological replicates per bait, 50 negative control runs, BFDR threshold 1%
Assay [1] has as its target T1, PDZD8 fused with BirA*-FLAG (BioID bait) (human) (UniProt Q8NEN9).
T1 sequence: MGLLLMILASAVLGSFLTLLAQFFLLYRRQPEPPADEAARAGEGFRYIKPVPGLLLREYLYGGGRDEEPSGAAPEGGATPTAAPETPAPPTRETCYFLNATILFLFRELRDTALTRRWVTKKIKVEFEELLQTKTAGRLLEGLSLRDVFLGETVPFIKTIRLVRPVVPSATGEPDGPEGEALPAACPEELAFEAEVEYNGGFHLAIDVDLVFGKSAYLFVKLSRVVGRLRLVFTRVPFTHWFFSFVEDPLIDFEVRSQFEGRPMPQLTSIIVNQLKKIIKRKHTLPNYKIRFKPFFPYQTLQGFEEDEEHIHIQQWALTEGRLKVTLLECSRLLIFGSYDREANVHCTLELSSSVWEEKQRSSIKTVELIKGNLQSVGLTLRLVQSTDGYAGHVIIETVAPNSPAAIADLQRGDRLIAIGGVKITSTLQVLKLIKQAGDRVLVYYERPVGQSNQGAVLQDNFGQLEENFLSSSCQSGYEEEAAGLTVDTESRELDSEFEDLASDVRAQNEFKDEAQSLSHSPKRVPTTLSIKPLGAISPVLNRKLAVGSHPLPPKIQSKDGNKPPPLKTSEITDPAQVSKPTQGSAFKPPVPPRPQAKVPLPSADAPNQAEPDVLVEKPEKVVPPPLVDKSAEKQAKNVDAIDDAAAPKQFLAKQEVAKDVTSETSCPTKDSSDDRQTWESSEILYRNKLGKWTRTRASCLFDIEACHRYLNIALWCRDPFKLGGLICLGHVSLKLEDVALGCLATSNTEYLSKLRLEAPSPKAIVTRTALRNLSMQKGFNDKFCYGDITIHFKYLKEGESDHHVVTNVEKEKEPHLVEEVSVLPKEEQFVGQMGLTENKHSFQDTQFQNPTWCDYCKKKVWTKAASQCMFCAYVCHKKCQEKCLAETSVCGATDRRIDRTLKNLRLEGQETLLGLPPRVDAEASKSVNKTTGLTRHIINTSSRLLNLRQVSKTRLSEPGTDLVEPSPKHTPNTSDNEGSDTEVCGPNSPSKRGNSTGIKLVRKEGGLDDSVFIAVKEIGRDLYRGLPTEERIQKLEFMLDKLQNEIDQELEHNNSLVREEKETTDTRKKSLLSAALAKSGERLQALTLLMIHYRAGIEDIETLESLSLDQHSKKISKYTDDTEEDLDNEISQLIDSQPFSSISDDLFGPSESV

Assay [2] concerns the target T2, ESYT2 fused with BirA*-FLAG (BioID bait) (human) (UniProt A0FGR8).
T2 sequence: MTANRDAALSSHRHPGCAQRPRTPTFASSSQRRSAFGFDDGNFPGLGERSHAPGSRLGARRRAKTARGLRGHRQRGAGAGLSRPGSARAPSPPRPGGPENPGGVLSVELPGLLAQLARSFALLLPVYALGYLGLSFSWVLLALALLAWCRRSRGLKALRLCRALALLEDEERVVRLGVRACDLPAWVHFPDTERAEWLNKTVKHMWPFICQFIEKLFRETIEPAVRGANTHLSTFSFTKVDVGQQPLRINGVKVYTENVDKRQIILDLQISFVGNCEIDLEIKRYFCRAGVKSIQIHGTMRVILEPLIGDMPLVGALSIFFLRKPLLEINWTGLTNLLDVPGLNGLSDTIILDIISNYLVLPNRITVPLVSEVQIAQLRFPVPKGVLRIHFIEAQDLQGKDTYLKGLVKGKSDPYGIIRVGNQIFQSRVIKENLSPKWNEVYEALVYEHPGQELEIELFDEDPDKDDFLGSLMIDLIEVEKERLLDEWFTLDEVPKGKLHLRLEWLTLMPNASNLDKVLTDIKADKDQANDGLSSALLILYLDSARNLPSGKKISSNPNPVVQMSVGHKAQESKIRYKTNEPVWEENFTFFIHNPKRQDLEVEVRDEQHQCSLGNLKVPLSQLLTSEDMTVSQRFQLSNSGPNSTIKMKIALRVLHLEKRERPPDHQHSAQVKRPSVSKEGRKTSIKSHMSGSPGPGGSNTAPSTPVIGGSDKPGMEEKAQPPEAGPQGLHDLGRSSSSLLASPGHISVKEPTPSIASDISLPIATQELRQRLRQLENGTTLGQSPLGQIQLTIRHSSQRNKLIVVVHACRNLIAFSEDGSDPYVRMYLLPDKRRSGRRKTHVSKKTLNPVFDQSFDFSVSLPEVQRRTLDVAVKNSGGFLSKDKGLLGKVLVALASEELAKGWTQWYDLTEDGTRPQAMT

The target in assay [3] is T3, SYNJ2BP fused with BirA*-FLAG (BioID bait) (human) (UniProt P57105).
T3 sequence: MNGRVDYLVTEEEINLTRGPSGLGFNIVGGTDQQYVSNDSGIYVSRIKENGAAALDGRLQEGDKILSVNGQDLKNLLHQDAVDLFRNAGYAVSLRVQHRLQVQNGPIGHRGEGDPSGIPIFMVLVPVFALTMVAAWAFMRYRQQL

Results are given in words; binding and its absence hold for the method and conditions named. In cells and extracts the contact can be indirect. A yes stands for co-enrichment or nearness to the bait. Other partners may have been found. Tags and fused reporters may be left off the sequences shown.

B1: ZFYVE27 (Protrudin) (protein, UniProt Q5T4F4 1-411)
chain: MQTSEREGSGPELSPSVMPEAPLESPPFPTKSPAFDLFNLVLSYKRLEIYLEPLKDAGDGVRYLLRWQMPLCSLLTCLGLNVLFLTLNEGAWYSVGALMISVPALLGYLQEVCRARLPDSELMRRKYHSVRQEDLQRGRLSRPEAVAEVKSFLIQLEAFLSRLCCTCEAAYRVLHWENPVVSSQFYGALLGTVCMLYLLPLCWVLTLLNSTLFLGNVEFFRVVSEYRASLQQRMNPKQEEHAFESPPPPDVGGKDGLMDSTPALTPTEDLTPGSVEEAEEAEPDEEFKDAIEETHLVVLEDDEGAPCPAEDELALQDNGFLSKNEVLRSKVSRLTERLRKRYPTNNFGNCTGCSATFSVLKKRRSCSNCGNSFCSRCCSFKVPKSSMGATAPEAQRETVFVCASCNQTLSK
Regarding B1, the binding result in assay [1] is “binds”.

B2: ESYT1 (endogenous prey in BioID) (protein, UniProt Q9BSJ8 1-1104)
chain: MERSPGEGPSPSPMDQPSAPSDPTDQPPAAHAKPDPGSGGQPAGPGAAGEALAVLTSFGRRLLVLIPVYLAGAVGLSVGFVLFGLALYLGWRRVRDEKERSLRAARQLLDDEEQLTAKTLYMSHRELPAWVSFPDVEKAEWLNKIVAQVWPFLGQYMEKLLAETVAPAVRGSNPHLQTFTFTRVELGEKPLRIIGVKVHPGQRKEQILLDLNISYVGDVQIDVEVKKYFCKAGVKGMQLHGVLRVILEPLIGDLPFVGAVSMFFIRRPTLDINWTGMTNLLDIPGLSSLSDTMIMDSIAAFLVLPNRLLVPLVPDLQDVAQLRSPLPRGIIRIHLLAARGLSSKDKYVKGLIEGKSDPYALVRLGTQTFCSRVIDEELNPQWGETYEVMVHEVPGQEIEVEVFDKDPDKDDFLGRMKLDVGKVLQASVLDDWFPLQGGQGQVHLRLEWLSLLSDAEKLEQVLQWNWGVSSRPDPPSAAILVVYLDRAQDLPLKKGNKEPNPMVQLSIQDVTQESKAVYSTNCPVWEEAFRFFLQDPQSQELDVQVKDDSRALTLGALTLPLARLLTAPELILDQWFQLSSSGPNSRLYMKLVMRILYLDSSEICFPTVPGCPGAWDVDSENPQRGSSVDAPPRPCHTTPDSQFGTEHVLRIHVLEAQDLIAKDRFLGGLVKGKSDPYVKLKLAGRSFRSHVVREDLNPRWNEVFEVIVTSVPGQELEVEVFDKDLDKDDFLGRCKVRLTTVLNSGFLDEWLTLEDVPSGRLHLRLERLTPRPTAAELEEVLQVNSLIQTQKSAELAAALLSIYMERAEDLPLRKGTKHLSPYATLTVGDSSHKTKTISQTSAPVWDESASFLIRKPHTESLELQVRGEGTGVLGSLSLPLSELLVADQLCLDRWFTLSSGQGQVLLRAQLGILVSQHSGVEAHSHSYSHSSSSLSEEPELSGGPPHITSSAPELRQRLTHVDSPLEAPAGPLGQVKLTLWYYSEERKLVSIVHGCRSLRQNGRDPPDPYVSLLLLPDKNRGTKRRTSQKKRTLSPEFNERFEWELPLDEAQRRKLDVSVKSNSSFMSRERELLGKVQLDLAETDLSQGVARWYDLMDNKDKGSS
With B2, the binding result in assay [2] and in assay [3] was “binds” each time.
